For 21 targets, log2 fold change results are on record in the supplement of paper PMC10849652.

Protein sequences, listed by entry. Tags and fused reporters are not part of them. Lines headed by an entry give the natural chain unless they say otherwise; changes in a name come on top.
UniProt P19827: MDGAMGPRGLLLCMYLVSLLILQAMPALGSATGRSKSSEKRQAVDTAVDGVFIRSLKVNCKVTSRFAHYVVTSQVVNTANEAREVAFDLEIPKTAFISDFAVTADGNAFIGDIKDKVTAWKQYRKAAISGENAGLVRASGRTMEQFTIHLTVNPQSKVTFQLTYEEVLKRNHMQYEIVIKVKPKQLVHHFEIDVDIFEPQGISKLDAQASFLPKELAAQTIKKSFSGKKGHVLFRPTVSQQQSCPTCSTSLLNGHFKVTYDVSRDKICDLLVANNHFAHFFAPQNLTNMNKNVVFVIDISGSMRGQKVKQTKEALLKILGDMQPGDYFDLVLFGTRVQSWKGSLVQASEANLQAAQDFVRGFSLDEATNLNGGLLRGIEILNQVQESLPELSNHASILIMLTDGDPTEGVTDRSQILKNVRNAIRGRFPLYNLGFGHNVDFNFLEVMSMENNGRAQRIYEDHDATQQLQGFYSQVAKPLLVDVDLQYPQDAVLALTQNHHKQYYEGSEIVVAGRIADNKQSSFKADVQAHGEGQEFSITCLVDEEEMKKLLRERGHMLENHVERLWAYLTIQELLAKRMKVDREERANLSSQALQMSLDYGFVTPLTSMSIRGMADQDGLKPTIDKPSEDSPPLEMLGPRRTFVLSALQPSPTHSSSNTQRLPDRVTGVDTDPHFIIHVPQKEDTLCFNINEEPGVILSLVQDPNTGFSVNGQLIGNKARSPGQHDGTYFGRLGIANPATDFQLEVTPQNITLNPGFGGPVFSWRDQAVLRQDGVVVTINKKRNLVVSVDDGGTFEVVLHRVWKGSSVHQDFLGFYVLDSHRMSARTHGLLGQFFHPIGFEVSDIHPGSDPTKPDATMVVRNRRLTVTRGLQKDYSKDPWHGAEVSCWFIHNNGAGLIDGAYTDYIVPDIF
UniProt Q14573, whole entry, looked up: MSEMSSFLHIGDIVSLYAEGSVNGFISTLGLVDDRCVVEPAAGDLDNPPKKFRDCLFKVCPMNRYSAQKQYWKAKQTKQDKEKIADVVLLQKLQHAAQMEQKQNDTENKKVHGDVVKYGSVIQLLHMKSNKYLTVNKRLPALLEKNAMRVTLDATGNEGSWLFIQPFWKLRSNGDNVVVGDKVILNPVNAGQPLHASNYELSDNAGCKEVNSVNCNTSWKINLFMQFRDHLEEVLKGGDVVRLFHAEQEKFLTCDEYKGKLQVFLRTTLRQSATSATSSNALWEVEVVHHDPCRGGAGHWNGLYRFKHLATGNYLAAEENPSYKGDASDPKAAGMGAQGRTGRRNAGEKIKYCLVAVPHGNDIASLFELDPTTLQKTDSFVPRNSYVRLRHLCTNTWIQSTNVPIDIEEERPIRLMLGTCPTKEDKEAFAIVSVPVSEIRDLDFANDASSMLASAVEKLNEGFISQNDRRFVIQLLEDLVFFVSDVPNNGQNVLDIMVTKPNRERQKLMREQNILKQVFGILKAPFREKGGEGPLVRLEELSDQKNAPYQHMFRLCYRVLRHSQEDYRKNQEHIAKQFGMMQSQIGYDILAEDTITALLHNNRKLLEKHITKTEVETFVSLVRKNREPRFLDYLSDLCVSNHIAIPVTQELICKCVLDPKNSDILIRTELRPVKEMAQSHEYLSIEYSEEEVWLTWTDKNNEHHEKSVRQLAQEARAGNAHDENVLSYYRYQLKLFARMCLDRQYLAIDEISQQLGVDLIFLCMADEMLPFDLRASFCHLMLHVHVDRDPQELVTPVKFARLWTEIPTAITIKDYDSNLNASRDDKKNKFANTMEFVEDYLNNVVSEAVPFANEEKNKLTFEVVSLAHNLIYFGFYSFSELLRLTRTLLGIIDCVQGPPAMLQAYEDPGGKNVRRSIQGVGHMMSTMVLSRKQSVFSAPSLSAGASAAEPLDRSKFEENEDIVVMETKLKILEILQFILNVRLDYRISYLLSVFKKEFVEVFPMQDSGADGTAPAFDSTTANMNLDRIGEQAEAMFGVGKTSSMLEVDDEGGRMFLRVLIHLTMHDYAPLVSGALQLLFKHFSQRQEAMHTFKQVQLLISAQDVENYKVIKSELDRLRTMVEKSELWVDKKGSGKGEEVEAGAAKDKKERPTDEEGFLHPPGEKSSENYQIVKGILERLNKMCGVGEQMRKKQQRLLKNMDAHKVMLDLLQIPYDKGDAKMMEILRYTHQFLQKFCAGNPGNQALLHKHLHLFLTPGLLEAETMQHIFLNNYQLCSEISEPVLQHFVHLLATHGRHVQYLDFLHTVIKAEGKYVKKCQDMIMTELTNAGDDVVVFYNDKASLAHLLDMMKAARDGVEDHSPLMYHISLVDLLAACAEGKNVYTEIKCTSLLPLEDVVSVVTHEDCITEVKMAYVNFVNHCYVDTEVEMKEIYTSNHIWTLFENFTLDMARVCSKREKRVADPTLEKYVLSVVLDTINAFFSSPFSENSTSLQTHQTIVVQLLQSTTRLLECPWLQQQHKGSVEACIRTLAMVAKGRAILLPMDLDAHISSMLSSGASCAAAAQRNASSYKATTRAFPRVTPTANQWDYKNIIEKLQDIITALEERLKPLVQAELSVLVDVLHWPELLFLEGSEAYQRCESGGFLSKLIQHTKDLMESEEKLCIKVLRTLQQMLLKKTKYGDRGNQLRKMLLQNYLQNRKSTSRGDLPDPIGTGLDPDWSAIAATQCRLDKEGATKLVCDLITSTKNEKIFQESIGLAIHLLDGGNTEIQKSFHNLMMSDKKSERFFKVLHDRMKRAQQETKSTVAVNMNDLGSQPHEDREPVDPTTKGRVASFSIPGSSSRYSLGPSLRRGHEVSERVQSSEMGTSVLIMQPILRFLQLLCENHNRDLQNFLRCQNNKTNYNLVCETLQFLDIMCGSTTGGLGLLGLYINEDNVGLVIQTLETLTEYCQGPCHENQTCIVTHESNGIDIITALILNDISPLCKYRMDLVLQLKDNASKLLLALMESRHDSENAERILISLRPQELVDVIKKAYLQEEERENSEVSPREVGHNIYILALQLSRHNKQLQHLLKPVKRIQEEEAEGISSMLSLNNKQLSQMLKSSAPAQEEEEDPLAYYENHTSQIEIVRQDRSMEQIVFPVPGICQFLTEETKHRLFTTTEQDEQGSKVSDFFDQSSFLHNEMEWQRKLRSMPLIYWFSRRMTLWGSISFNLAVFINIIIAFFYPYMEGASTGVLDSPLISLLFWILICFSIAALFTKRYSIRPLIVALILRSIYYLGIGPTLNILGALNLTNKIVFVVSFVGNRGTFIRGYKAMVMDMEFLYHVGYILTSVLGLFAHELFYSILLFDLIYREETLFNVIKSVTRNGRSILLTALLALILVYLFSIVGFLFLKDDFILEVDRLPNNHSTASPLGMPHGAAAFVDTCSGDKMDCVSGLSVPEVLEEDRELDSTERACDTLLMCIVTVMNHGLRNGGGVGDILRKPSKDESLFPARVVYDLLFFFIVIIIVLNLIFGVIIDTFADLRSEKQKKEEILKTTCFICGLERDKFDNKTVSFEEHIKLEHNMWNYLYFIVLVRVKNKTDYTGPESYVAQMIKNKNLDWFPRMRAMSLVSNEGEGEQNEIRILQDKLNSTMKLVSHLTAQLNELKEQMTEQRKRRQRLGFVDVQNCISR
UniProt Q8IY31, whole entry, looked up: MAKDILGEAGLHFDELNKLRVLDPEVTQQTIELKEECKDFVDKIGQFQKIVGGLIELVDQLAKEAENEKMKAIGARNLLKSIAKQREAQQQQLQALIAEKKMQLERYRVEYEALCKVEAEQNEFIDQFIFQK
UniProt Q12906, whole entry, looked up: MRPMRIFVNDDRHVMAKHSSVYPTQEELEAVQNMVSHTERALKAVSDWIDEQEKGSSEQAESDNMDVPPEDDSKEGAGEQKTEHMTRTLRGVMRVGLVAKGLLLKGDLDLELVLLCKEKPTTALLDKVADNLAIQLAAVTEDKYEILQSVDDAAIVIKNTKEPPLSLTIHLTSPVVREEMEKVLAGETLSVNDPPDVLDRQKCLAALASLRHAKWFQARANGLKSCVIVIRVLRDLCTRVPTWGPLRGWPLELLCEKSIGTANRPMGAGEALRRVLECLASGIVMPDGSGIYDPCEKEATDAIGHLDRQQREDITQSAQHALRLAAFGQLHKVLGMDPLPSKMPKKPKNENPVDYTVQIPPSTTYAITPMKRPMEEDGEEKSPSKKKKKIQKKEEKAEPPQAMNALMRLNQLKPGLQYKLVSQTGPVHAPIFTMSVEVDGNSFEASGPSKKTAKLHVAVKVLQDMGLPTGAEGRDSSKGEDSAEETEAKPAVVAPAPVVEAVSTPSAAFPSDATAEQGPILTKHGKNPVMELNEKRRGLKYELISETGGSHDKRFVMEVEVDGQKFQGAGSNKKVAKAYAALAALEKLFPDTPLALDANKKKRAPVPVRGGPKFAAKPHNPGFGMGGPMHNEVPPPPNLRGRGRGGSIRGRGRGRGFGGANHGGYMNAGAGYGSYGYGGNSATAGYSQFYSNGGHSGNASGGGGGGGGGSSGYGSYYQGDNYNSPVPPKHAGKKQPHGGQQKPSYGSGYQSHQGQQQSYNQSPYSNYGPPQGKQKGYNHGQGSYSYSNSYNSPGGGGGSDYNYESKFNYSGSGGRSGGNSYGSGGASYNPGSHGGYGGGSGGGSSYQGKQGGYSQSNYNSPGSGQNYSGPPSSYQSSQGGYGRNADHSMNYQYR
UniProt Q969P0: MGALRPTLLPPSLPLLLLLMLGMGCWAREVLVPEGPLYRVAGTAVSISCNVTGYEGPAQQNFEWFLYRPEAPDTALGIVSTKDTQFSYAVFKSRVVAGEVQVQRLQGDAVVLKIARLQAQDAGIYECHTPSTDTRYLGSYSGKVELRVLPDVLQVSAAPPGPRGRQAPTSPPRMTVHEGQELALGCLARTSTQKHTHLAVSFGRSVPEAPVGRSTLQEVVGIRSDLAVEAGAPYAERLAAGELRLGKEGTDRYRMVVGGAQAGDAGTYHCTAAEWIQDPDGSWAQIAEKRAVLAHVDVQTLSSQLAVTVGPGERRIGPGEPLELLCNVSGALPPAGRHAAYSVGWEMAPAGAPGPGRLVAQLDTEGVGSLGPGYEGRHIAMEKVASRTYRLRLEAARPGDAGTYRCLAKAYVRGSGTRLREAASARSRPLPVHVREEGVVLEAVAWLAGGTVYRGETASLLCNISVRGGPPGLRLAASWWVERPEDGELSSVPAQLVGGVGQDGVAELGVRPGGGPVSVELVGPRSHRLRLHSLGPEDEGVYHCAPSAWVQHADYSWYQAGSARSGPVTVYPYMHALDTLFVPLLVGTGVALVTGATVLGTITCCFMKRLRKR
UniProt P28290: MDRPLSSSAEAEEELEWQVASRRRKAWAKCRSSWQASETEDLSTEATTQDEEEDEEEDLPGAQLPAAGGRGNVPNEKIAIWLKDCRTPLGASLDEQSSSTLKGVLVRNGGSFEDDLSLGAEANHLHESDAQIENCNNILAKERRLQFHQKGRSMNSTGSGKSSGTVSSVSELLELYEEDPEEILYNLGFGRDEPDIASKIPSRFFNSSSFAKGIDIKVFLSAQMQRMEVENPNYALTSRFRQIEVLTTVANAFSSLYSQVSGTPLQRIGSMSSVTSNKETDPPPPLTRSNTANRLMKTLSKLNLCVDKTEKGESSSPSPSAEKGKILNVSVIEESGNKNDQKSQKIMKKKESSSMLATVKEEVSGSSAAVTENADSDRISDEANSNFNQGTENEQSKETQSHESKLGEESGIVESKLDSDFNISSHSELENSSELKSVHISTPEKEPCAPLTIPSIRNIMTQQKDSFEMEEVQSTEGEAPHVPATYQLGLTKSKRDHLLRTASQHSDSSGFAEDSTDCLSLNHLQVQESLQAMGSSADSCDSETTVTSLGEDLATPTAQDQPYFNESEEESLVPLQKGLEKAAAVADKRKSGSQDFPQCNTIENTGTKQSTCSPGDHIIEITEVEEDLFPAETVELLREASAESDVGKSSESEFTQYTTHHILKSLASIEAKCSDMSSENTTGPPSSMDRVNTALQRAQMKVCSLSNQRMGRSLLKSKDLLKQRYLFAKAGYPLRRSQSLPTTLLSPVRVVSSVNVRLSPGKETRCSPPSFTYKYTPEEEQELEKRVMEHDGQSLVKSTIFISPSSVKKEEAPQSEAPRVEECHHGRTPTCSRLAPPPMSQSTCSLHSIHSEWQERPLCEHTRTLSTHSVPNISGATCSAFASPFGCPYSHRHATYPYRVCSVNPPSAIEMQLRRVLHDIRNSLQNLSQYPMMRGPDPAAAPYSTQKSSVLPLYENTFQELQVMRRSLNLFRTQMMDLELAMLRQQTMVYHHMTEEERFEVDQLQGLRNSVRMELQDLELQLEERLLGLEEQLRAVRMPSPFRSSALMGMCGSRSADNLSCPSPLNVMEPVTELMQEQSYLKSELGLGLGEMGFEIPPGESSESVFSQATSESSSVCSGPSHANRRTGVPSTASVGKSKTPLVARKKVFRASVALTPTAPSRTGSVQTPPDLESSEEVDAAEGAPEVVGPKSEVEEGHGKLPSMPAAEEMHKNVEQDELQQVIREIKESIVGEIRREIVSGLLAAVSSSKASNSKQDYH

This is one part of the list.

Compound in this assay: c1cc(OCCN2CCCCC2)cc(-c2n[nH]c3ccc(-c4nnc[nH]4)cc23)c1
Description: log2 fold change, soluble protein after heating vs DMSO (PISA); higher = thermal stabilisation; K562 cells, 10 uM, 30 min; active = over 0.2 and 3.5 SD of the protein, either way, in both replicates (recomputed). The procedure, abridged:
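Soluble protein was defined as the supernatant after 21,000xg for 90 min. It came from K562 cells at 2×10^6 cells/mL given 10 μM compound for 30 min, heated in aliquots for 3 min across 48°C-58°C, pooled, and extracted in PBS with 0.5% NP-40 at 4°C, and was quantified by TMTpro 16plex LC-MS/MS with equalised channel sums. Thermal stability against control samples, from duplicates, is reported as log2 fold change.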
For the target ITIH1 (UniProt P19827), the log2 fold change was inactive: -0.05.
The figure for IGLL5 (UniProt B9A064) is inactive: 0.401.
As for ITPR3 (UniProt Q14573), the log2 fold change is inactive: 0.055.
The figure for IFT20 isoform 2 (UniProt Q8IY31) is inactive: 0.077; for ILF3 (UniProt Q12906) it is inactive: -0.218; for IQSEC2 (UniProt Q5JU85) it is inactive: -0.046.
The figure for IGHG1 (UniProt P01857) is inactive: 0.273; for INO80E (UniProt Q8NBZ0) it is inactive: -0.002; for IL1RAP isoform 5 (UniProt Q9NPH3) it is inactive: -0.054.
Regarding ING3 (UniProt Q9NXR8), the log2 fold change is inactive: 0.013.
As to ISL2 (UniProt Q96A47), the log2 fold change was inactive: 0.032.
Turning to IRAK1 (UniProt P51617), the log2 fold change is inactive: -0.259.
With ING5 (UniProt Q8WYH8) the figure was inactive: -0.008.
The figure for IGSF1 isoform 4 (UniProt Q8N6C5) is inactive: -0.331.
The figure for IGSF8 (UniProt Q969P0) is inactive: -0.236.
Take INHBE (UniProt P58166): the log2 fold change is inactive: 0.019.
Turning to IKBKB (UniProt O14920), the log2 fold change is inactive: -0.216.
IRF2BP1 (UniProt Q8IU81): the log2 fold change was inactive: 0.04.
The figure for ITPRID2 (UniProt P28290) is inactive: 0.211.
As to INTS1 (UniProt Q8N201), the log2 fold change is inactive: -0.343.
The figure for IGLC3 (UniProt P0DOY3) is inactive: 0.191.
